From patent US20140350088
For at least one entry, the source does not settle the construct or the ends of the probe. For part of these data: A weaker result is weaker than the reference pair of the same experiment. For part of these data: Where a protein sequence is shown, tags need not be part of it.

The chains behind the UniProt entries cited, without tags or fusion partners. Residues count along the entry.
UniProt P01275, 53-81: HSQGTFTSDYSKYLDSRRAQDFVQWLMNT

How the values were obtained:
[1] = target: T1, human alpha-CGRP (Homo sapiens) (UniProt P06881); test: SPR; conditions: L-RNA, synthetic protein, mirror-image nucleic acid
T1 sequence: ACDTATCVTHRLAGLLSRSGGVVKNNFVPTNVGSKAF

[2] = target: biotinylated human glucagon (Homo sapiens) (UniProt P01275); test: SPR; conditions: L-DNA, synthetic protein, mirror-image nucleic acid, variant of 259-H6-002
[3] = target: human glucagon (Homo sapiens) (UniProt P01275); test: activity in cells; conditions: L-DNA, glucagon-induced cAMP, CHO glucagon receptor cells, protein details: L-peptide, mirror-image nucleic acid

## CCGUGCUGUCGGAGACUACUCGUCGAGUAGAAAUAGGUCCCCUCCCACGG [226-F2-001-D35]
[1]; dA at 35, reduced or lost binding vs parent, variant of 226-F2-001
  binding result: binds more weakly

## CCGUGCUGUCGGAGACUACUCGUCGAGUAGAAAUAGGUCCCCUCCCACGG [226-F2-001-D31]
[1]; dA at 31, reduced or lost binding vs parent, variant of 226-F2-001
  binding result: binds more weakly

## CCGUGCUGUCGGAGACUACUCGUCGAGUAGAAAUAGGUCCCCUCCCACGG [226-F2-001-D32]
[1]; dA at 32, reduced or lost binding vs parent, variant of 226-F2-001
  binding result: binds more weakly

## CCGUGCUGUCGGAGACUACUCGUCGAGUAGAAAUAGGUCCCCUCCCACGG [226-F2-001-D39]
[1]; 2'-deoxy at 39, improved vs parent, 37 C, synthetic backbone
  binding result: binds

## ACTCGAGAGGAAAGGTTGGTAAAGGTTCGGTTGGAUTCACTCGAGT [259-H6-002-R13-R24-R36]
[2]; rA at 13, rG at 24, rU at 36, compared with double substitutions
  binding result: binds
[3]; rA at 13, rG at 24, rU at 36, variant of 259-H6-002
  IC50: 6.2 nM

## CCGUGCUGUCGGAGACUACUCGUCGAGUAGAAAUAGGUCCCCUCCCACGG [226-F2-001-D08]
[1]; 2'-deoxy at 8, improved vs parent, 37 C, synthetic backbone
  binding result: binds

## CCGTGCUGUCGGAGACUACUCGUCGAGUAGAAAUAGGUCCCCUCCCACGG [226-F2-001-D04]
[1]; dT at 4, affinity unchanged vs parent, variant of 226-F2-001
  binding result: binds

## CCGUGCUGUCGGAGACUACUCGUCGAGUAGAAAUAGGUCCCCUCCCACGG [226-F2-001-D30]
[1]; 2'-deoxy at 30, improved vs parent, 37 C, synthetic backbone
  binding result: binds

## CCGUGCUGUCGGAGACUACUCGUCGAGUAGAAAUAGGUCCCCUCCCACGG [226-F2-001-D21]
[1]; dC at 21, reduced or lost binding vs parent, variant of 226-F2-001
  binding result: binds more weakly

## CCGUGCUGUCGGAGACUACUCGUCGAGUAGAAAUAGGTCCCCUCCCACGG [226-F2-001-D38]
[1]; dT at 38, reduced or lost binding vs parent, variant of 226-F2-001
  binding result: binds more weakly

## CCGUGCUGUCGGAGACUACUCGUCGAGUAGAAAUAGGUCCCCUCCCACGG [226-F2-001-D36]
[1]; dG at 36, reduced or lost binding vs parent, variant of 226-F2-001
  binding result: binds more weakly

## CCGUGCUGUCGGAGACUACUCGUCGAGUAGAAAUAGGUCCCCUCCCACGG [226-F2-001-D42]
[1]; 2'-deoxy at 42, improved vs parent, 37 C, synthetic backbone
  binding result: binds

## CCGUGCUGUCGGAGACUACTCGUCGAGUAGAAAUAGGUCCCCUCCCACGG [226-F2-001-D20]
[1]; dT at 20, reduced or lost binding vs parent, variant of 226-F2-001
  binding result: binds more weakly

## CCGUGCUGUCGGAGACUACUCGUCGAGUAGAAAUAGGUCCCCUCCCACGG [226-F2-001-D33]
[1]; 2'-deoxy at 33, improved vs parent, 37 C, synthetic backbone
  binding result: binds

## ACTCGAGAGGAAAGGTTGGTAAAGGTTCGGTTGGATTCACTCGAGT [259-H6-002]
[3]; single-stranded DNA
  IC50: 176 nM

## CCGUGCUGUCGGAGACUACUCGUCGAGUAGAAAUAGGUCCCCUCCCACGG [226-F2-001-D46]
[1]; 2'-deoxy at 46, improved vs parent, 37 C, synthetic backbone
  binding result: binds

## CCGUGCUGUCGGAGACUACUCGUCGAGUAGAAAUAGGUCCCCUCCCACGG [226-F2-001-D25]
[1]; 2'-deoxy at 25, improved vs parent, 37 C, synthetic backbone
  binding result: binds

## ACTCGAGAGGAAAGGTTGGTAAAGGTTCGGTTGGATTCACTCGAGT [259-H6-002-R13]
[2]; rA at 13
  binding result: binds
[3]; rA at 13, variant of 259-H6-002
  IC50: 12.5 nM

## CCGUGCUGUCGGAGACUACUCGUCGAGUAGAAAUAGGUCCCCUCCCACGG [226-F2-001-D19]
[1]; dC at 19, among best improved single substitutions, variant of 226-F2-001
  binding result: binds

## CCGUGCUGUCGGAGACUACUCGUCGAGUAGAAAUAGGUCCCCUCCCACGG [226-F2-001-D40]
[1]; dC at 40, reduced or lost binding vs parent, variant of 226-F2-001
  binding result: binds more weakly

## CCGUGCUGTCGGAGACUACUCGUCGAGUAGAAAUAGGUCCCCUCCCACGG [226-F2-001-D09]
[1]; dT at 9, improved vs parent, 37 C, synthetic backbone
  binding result: binds

## CCGUGCUGUCGGAGACUACUCGUCGAGUAGAAAUAGGUCCCCUCCCACGG [226-F2-001-D16]
[1]; 2'-deoxy at 16, improved vs parent, 37 C, synthetic backbone
  binding result: binds

## CCGUGCUGUCGGAGACUACUCGUCGAGUAGAAAUAGGUCCCCUCCCACGG [226-F2-001-D45]
[1]; 2'-deoxy at 45, improved vs parent, 37 C, synthetic backbone
  binding result: binds

## CCGUGCUGUCGGAGACUACUCGUCGAGUAGAAAUAGGUCCCCUCCCACGG [226-F2-001-D49]
[1]; 2'-deoxy at 49, improved vs parent, 37 C, synthetic backbone
  binding result: binds

## CCGUGCUGUCGGAGACUACUCGUCGAGUAGAAAUAGGUCCCCUCCCACGG [226-F2-001-D29]
[1]; dA at 29, reduced or lost binding vs parent, variant of 226-F2-001
  binding result: binds more weakly

## CCGUGCUGUCGGAGACUACUCGUCGAGUAGAAAUAGGUCCCCUCCCACGG [226-F2-001-D37]
[1]; 2'-deoxy at 37, improved vs parent, 37 C, synthetic backbone
  binding result: binds

## CCGUGCUGUCGGAGACUACUCGUCGAGUAGAAAUAGGUCCCCUCCCACGG [226-F2-001-D06]
[1]; dC at 6, reduced or lost binding vs parent, variant of 226-F2-001
  binding result: binds more weakly

## CCGUGCUGUCGGAGACUACUCGUCGAGUAGAAAUAGGUCCCCUCCCACGG [226-F2-001-D03]
[1]; 2'-deoxy at 3, improved vs parent, 37 C, synthetic backbone
  binding result: binds

## CCGUGCUGUCGGAGACUACUCGUCGAGUAGAAAUAGGUCCCCUCCCACGG [226-F2-001-D50]
[1]; 2'-deoxy at 50, improved vs parent, 37 C, synthetic backbone
  binding result: binds

## CCGUGCUGUCGGAGACUACUCGUCGAGUAGAAATAGGUCCCCUCCCACGG [226-F2-001-D34]
[1]; dT at 34, improved vs parent, 37 C, synthetic backbone
  binding result: binds

## CCGUGCUGUCGGAGACUACUCGUCGAGUAGAAAUAGGUCCCCUCCCACGG [226-F2-001-D13]
[1]; dA at 13, reduced or lost binding vs parent, variant of 226-F2-001
  binding result: binds more weakly

## CCGUGCUGUCGGAGACUACUCGUCGAGUAGAAAUAGGUCCCCUCCCACGG [226-F2-001-D22]
[1]; 2'-deoxy at 22, improved vs parent, 37 C, synthetic backbone
  binding result: binds

## CCGUGCTGUCGGAGACUACUCGUCGAGUAGAAAUAGGUCCCCUCCCACGG [226-F2-001-D07]
[1]; dT at 7, reduced or lost binding vs parent, variant of 226-F2-001
  binding result: binds more weakly

## CCGUGCUGUCGGAGACUACUCGUCGAGUAGAAAUAGGUCCCCUCCCACGG [226-F2-001-D14]
[1]; 2'-deoxy at 14, improved vs parent, 37 C, synthetic backbone
  binding result: binds

## CCGUGCUGUCGGAGACUACUCGUCGAGUAGAAAUAGGUCCCCUCCCACGG [226-F2-001-D48]
[1]; 2'-deoxy at 48, improved vs parent, 37 C, synthetic backbone
  binding result: binds

## CCGUGCUGUCGGAGACUACUCGUCGAGUAGAAAUAGGUCCCCUCCCACGG [226-F2-001-D27]
[1]; dG at 27, affinity unchanged vs parent, variant of 226-F2-001
  binding result: binds

## CCGUGCUGUCGGAGACUACUCGUCGAGUAGAAAUAGGUCCCCUCCCACGG [226-F2-001-D02]
[1]; dC at 2, reduced or lost binding vs parent, variant of 226-F2-001
  binding result: binds more weakly

## CCGUGCUGUCGGAGACUACUCGUCGAGUAGAAAUAGGUCCCCUCCCACGG [226-F2-001-D01]
[1]; dC at 1, reduced or lost binding vs parent, variant of 226-F2-001
  binding result: binds more weakly

## CCGUGCUGUCGGAGACUACUCGTCGAGUAGAAAUAGGUCCCCUCCCACGG [226-F2-001-D23]
[1]; dT at 23, improved vs parent, 37 C, synthetic backbone
  binding result: binds

## CCGUGCUGUCGGAGACUACUCGUCGAGUAGAAAUAGGUCCCCUCCCACGG [226-F2-001-D26]
[1]; 2'-deoxy at 26, improved vs parent, 37 C, synthetic backbone
  binding result: binds

## CCGUGCUGUCGGAGACUACUCGUCGAGUAGAAAUAGGUCCCCUCCCACGG [226-F2-001-D11]
[1]; dG at 11, reduced or lost binding vs parent, variant of 226-F2-001
  binding result: binds more weakly

## CCGUGCUGUCGGAGACUACUCGUCGAGUAGAAAUAGGUCCCCUCCCACGG [226-F2-001-D15]
[1]; dA at 15, reduced or lost binding vs parent, variant of 226-F2-001
  binding result: binds more weakly

## CCGUGCUGUCGGAGACUACUCGUCGAGUAGAAAUAGGUCCCCUCCCACGG [226-F2-001-D12]
[1]; dG at 12, reduced or lost binding vs parent, variant of 226-F2-001
  binding result: binds more weakly
